# Source: patent US10221215B2, “Hydrogen bond surrogate macrocycles as modulators of Ras” (New York University, priority 2011, dated 2019)
# Not every detail of the peptide structures is certain; ends, links or a residue may be inferred.
# How the values were obtained:
# [1] = molecular target: Ras/Sos complex (Homo sapiens, UniProt P01112); test: GST pull-down assay for inhibition of Ras/Sos; format: binding; conditions: GST pull-down assay in the presence of 40 nM Sos and 100 nM GST-Ras
# [2] = test system: EGF-induced Ras activation; test: Ras activation assay (RBD pull-down) in HeLa cells; format: cell-based; conditions: 75 μM peptide 12 hours, 10 ng/ml EGF
# [3] = test system: EGF-induced ERK activation; test: Erk activation assay in HeLa cells; format: cell-based
smiles,measurement,setting,value
CC[C@H](C)[C@H](NC(=O)CN1CC=CCCC(=O)N[C@@H](Cc2ccccc2)C(=O)N[C@@H](CCC(=O)O)C1=O)C(=O)N[C@@H](Cc1ccc(O)cc1)C(=O)N[C@@H](CCCNC(=N)N)C(=O)N[C@@H](CC(C)C)C(=O)N[C@@H](CCC(=O)O)C(=O)N[C@@H](CC(C)C)C(=O)N[C@@H](CC(C)C)C(=O)N[C@@H](CCCCN)C(=O)N[C@@H](C)C(=O)N[C@@H](CCC(=O)O)C(=O)N[C@@H](CCC(=O)O)C(=O)N[C@@H](C)C(=O)N[C@@H](CC(N)=O)C(N)=O [HBS 7],Inhibition of the Ras/Sos complex,[1],inhibition
same,EGF-induced Ras activation,[2],attenuation
same,EGF-induced ERK activation,[3]; peptide treatment before EGF stimulation,suppression
same,Intensity and duration of EGF-induced ERK activation,[3]; time course after EGF stimulation,reduction in the intensity and duration
